Structures were worked out from names or drawings and are uncertain.

Chains of the proteins cited; added tags and fusions are not shown. Residues count along the entry.
UniProt Q9NYK1, 27-1049 limits assumed: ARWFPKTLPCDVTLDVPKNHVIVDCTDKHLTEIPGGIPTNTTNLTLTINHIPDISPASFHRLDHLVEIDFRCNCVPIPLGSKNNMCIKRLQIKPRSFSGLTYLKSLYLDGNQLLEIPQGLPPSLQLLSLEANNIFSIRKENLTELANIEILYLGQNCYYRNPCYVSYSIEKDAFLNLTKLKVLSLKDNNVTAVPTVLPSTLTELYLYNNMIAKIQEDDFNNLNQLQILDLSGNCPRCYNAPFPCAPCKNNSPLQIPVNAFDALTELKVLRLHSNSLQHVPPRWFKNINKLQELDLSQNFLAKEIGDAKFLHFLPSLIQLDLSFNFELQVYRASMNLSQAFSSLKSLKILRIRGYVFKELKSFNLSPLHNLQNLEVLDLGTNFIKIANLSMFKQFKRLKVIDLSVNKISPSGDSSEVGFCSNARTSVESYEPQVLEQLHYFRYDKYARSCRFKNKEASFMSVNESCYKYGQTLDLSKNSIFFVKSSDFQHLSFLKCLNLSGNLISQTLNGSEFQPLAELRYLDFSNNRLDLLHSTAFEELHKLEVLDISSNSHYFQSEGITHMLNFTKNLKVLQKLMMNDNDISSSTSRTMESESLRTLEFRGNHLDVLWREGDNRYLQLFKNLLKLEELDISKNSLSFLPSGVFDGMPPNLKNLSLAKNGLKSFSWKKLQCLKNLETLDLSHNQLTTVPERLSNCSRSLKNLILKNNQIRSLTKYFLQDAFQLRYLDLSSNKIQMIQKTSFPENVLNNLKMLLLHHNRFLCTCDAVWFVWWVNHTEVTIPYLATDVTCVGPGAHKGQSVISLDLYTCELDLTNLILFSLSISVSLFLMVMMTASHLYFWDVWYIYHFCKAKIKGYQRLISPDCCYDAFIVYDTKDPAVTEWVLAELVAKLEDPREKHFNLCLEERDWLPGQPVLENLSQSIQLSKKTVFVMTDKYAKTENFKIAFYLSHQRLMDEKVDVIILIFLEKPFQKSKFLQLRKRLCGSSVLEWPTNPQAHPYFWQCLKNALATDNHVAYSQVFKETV
UniProt Q9NR97, 27-1041 limits assumed: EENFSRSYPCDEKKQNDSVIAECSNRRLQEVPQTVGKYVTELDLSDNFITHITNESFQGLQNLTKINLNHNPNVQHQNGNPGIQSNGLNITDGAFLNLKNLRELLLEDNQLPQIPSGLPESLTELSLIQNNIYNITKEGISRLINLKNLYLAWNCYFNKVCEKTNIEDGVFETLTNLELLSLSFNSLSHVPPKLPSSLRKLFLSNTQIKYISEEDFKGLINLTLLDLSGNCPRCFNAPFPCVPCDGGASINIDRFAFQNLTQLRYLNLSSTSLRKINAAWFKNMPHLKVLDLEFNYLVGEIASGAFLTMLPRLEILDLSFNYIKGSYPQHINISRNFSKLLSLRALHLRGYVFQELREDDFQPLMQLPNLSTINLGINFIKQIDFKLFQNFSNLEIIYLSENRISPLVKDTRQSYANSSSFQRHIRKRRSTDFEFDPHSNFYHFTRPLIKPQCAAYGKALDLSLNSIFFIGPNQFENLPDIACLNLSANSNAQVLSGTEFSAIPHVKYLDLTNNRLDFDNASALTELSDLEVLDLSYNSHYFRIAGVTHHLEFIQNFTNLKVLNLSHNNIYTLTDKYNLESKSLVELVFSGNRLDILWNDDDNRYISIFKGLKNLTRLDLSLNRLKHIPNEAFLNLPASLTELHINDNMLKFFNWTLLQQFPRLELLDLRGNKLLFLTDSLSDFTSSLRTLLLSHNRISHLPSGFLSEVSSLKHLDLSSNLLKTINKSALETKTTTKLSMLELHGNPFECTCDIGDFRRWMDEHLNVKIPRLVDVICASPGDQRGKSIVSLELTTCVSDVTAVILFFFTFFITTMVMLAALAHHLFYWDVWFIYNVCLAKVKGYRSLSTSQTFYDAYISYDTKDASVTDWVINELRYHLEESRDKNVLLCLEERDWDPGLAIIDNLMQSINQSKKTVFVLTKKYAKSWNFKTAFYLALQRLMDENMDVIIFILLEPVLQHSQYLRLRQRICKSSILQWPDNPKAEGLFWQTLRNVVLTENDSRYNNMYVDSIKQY

Test [1] deals with human TLR7 (Homo sapiens, UniProt Q9NYK1). As to the kind of experiment: HEK-Blue human TLR7 cell SEAP reporter assay (NF-κB activation). The following applies: read-out: human TLR7 EC50, HEK-Blue human TLR7 cells, stimulation for 20 hours, Quanti Blue read at 640 nm. An excerpt:
(§1) For TLR8 and TLR7 activity testing, HEK-Blue human TLR8 or TLR7 cells (Invivogen, San Diego, Calif., USA) are used, respectively. These cells are designed for studying the stimulation of human TLR8 or TLR7 by monitoring the activation of NF-κB. A SEAP (secreted embryonic alkaline phosphatase) reporter gene is placed under the control of the IFN-b minimal promoter fused to five NF-κB and AP-1-binding sites. Therefore the reporter expression is regulated by the NF-κB promoter upon stimulation of human TLR8 or TLR7 for 20 hours. The cell culture supernatant SEAP reporter activity was determined using Quanti Blue kit (Invivogen, San Diego, Ca, USA) at a wavelength of 640 nm, a detection medium that turns purple/blue in the presence of alkaline phosphatase. EC50 values were determined using Activity Base analysis (ID Business Solution, Limited).
In general terms: Reporter assays use an easily measured gene product as a stand-in for the process of interest.

In test [2] the target is human TLR8 (Homo sapiens, UniProt Q9NR97). As to the kind of experiment: HEK-Blue human TLR8 cell SEAP reporter assay (NF-κB activation). The note with it: read-out: human TLR8 EC50, HEK-Blue human TLR8 cells, stimulation for 20 hours, Quanti Blue read at 640 nm.
Description: as §1

The subject of test [3] is IFNα. As to the kind of experiment: PBMC cytokine profiling assay, IFNα induction. It counts as cell-based. The note with it: read-out: IFNα AC50; human PBMCs, 24 hours incubation. The procedure:
(§2) Compounds were dissolved and stored in DMSO (Sigma-Aldrich, St. Louis, Mo.) at 10 mM concentration.
(§3) Cryopreserved human PBMCs isolated from healthy donors were purchased from StemCell Technologies (Vancouver, Canada). Cell culture medium used was RPMI with L-Glutamine (Mediatech, Manassas, Va.) supplemented with 10% fetal bovine serum (Hyclone, GE Healthcare, Logan, Utah) and Penicillin-Streptomycin (Mediatech). Human TNFα, IL12p40, and IFNα2a 384-well Assay capture plates, standards, buffers and processing reagents were obtained from MesoScale Discovery Technologies (MSD; Rockville, Md.).
(§4) Cryopreserved human PBMCs (1×10e8 cells/ml) were thawed at 37° C. and resuspended in 25 mL warm cell culture medium. The cells were pelleted at 200×g (Beckman Avanti J-E) for 5 min and resuspended in 20 mL of fresh culture media. Cells were counted using a Cellometer (Nexcelcom Bioscience), adjusted to 2×10e6 cells, and incubated for 2 hours in an incubator set at 37° C., 5% CO2 to recover from cryopreservation. […]
(§5) Using a Biomek FX 384 well pipetting station (Beckman), conditioned culture medium (CCM) from the assay plate was transferred to MSD capture plates customized for each cytokine. […] MSD Read Buffer diluted to 2× in deionized water and 35 μL/well was added via Biomek FX instrument. The plates were read immediately in a MSD6000 reader. […]

Test [4] deals with TNFα. As to the kind of experiment: PBMC cytokine profiling assay, TNFα induction. It is filed as cell-based. The following applies: read-out: TNFα AC50; human PBMCs, 24 hours incubation. The procedure:
as §2, §3, §4, §5

The test system of test [5] is IL12p40. As to the kind of experiment: PBMC cytokine profiling assay, IL12-p40 induction. It counts as cell-based. The note with it: read-out: IL12p40 AC50; human PBMCs, 24 hours incubation. The procedure:
as §2, §3, §4, §5

The term EC50 denotes the concentration giving half of the maximal effect. One may read the AC50 as the concentration at which the activity in the assay is half-maximal. Consider `CCCN(CCC)C(=O)C1=Cc2ccc(C3=NCc4cc(OC)ccc4N3)cc2N=C(N)C1`, for which the EC50 is greater than 100 µM in test [1] and 0.002 µM in test [2]. The AC50 in test [3] was 6.9 µM; in test [4], 10.1 µM; in test [5], 6 µM.

The values are drawn from patent publication US20220305115A1 (JANSSEN SCIENCES IRELAND UNLIMITED COMPANY, priority 2019, published 2022).
